Results deposited as PubChem BioAssay AID1259254 (NCATS, 2017).
The deposit covers about 59,000 reagents; this is a part drawn at random. About 1,550 of them (2.6%) were called active. 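G2 share is only a proxy for re-replication; each gene was hit by three separate siRNAs, and active genes were retested.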 Reagents against one gene are numbered here. Further read-outs or replicates are left out here. The record does not give: the amount of reagent.

Aim: 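Genome-wide screen for genes that prevent DNA re-replication in cancer cells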 (primary screen)
System: human HCT116 colorectal cancer cells
Reagents: single siRNA against human genes
Duration: 3 days
Read-out: 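Imaged Hoechst DNA stain sorts each cell into a cycle phase by DNA amount; per plate, G2 fraction set to 0% for non-targeting and 100% for GMNN siRNA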
Scale: G2 robust z-score and G2 cells, % of GMNN control: higher = more G2 cells, more excess DNA replication
Hit rule: 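Active siRNAs have a G2 robust z of 5 or more median absolute deviations over the median, which in these data means about 38% or higher of GMNN control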

G2 robust z-score | G2 cells, % of GMNN control | Outcome | gene | reagent no.
1.14 | 11 | inactive | TAF10 (TATA-box binding protein associated factor 10) | 1
-0.575 | -1.08 | inactive | TAF10 (TATA-box binding protein associated factor 10) | 2
0.206 | 4.42 | inactive | TAF10 (TATA-box binding protein associated factor 10) | 3
-0.482 | -0.426 | inactive | MOGAT3 (monoacylglycerol O-acyltransferase 3) | 1
-0.629 | -1.46 | inactive | MOGAT3 (monoacylglycerol O-acyltransferase 3) | 2
0.0617 | 3.4 | inactive | MOGAT3 (monoacylglycerol O-acyltransferase 3) | 3
-1.25 | -5.85 | inactive | ELSPBP1 (epididymal sperm binding protein 1) | 1
0.55 | 6.84 | inactive | ELSPBP1 (epididymal sperm binding protein 1) | 2
-0.462 | -0.287 | inactive | ELSPBP1 (epididymal sperm binding protein 1) | 3
-0.286 | 0.958 | inactive | FREM2 (FRAS1 related extracellular matrix 2) | 1
-0.509 | -0.611 | inactive | FREM2 (FRAS1 related extracellular matrix 2) | 2
-0.386 | 0.252 | inactive | FREM2 (FRAS1 related extracellular matrix 2) | 3
1.5 | 13.5 | inactive | HSPA1L (heat shock protein family A (Hsp70) member 1 like) | 1
1.48 | 13.4 | inactive | HSPA1L (heat shock protein family A (Hsp70) member 1 like) | 2
-0.0137 | 2.87 | inactive | HSPA1L (heat shock protein family A (Hsp70) member 1 like) | 3
1.4 | 12.8 | inactive | SNW1 (SNW domain containing 1) | 1
2.04 | 17.3 | inactive | SNW1 (SNW domain containing 1) | 2
-0.0947 | 2.3 | inactive | SNW1 (SNW domain containing 1) | 3
0.66 | 7.61 | inactive | SLC2A13 | 1
-0.789 | -2.59 | inactive | SLC2A13 | 2
3.07 | 24.6 | inactive | SLC2A13 | 3
0.951 | 9.66 | inactive | KCTD2 (potassium channel tetramerization domain containing 2) | 1
2.74 | 22.2 | inactive | KCTD2 (potassium channel tetramerization domain containing 2) | 2
-1.1 | -4.75 | inactive | KCTD2 (potassium channel tetramerization domain containing 2) | 3
0.65 | 7.54 | inactive | HMGN2P24 | 1
0.363 | 5.52 | inactive | HMGN2P24 | 2
-0.652 | -1.62 | inactive | HMGN2P24 | 3
-0.755 | -2.35 | inactive | IQGAP1 (IQ motif containing GTPase activating protein 1) | 1
-0.972 | -3.87 | inactive | IQGAP1 (IQ motif containing GTPase activating protein 1) | 2
-1.31 | -6.25 | inactive | IQGAP1 (IQ motif containing GTPase activating protein 1) | 3
1.56 | 13.9 | inactive | COMMD6 (COMM domain containing 6) | 1
-0.499 | -0.546 | inactive | COMMD6 (COMM domain containing 6) | 2
1.7 | 15 | inactive | COMMD6 (COMM domain containing 6) | 3
0.0541 | 3.35 | inactive | CPA2 (carboxypeptidase A2) | 1
-0.137 | 2 | inactive | CPA2 (carboxypeptidase A2) | 2
-0.56 | -0.97 | inactive | CPA2 (carboxypeptidase A2) | 3
0.759 | 8.31 | inactive | LMX1A (LIM homeobox transcription factor 1 alpha) | 1
2.99 | 24 | inactive | LMX1A (LIM homeobox transcription factor 1 alpha) | 2
-1 | -4.08 | inactive | LMX1A (LIM homeobox transcription factor 1 alpha) | 3
2.12 | 17.9 | inactive | PBX2 (PBX homeobox 2) | 1
-0.777 | -2.5 | inactive | PBX2 (PBX homeobox 2) | 2
-1.07 | -4.55 | inactive | PBX2 (PBX homeobox 2) | 3
0.756 | 8.29 | inactive | POLB (DNA polymerase beta) | 1
0.147 | 4 | inactive | POLB (DNA polymerase beta) | 2
1.56 | 13.9 | inactive | POLB (DNA polymerase beta) | 3
-0.167 | 1.79 | inactive | ATR (ATR checkpoint kinase) | 1
0.179 | 4.23 | inactive | ATR (ATR checkpoint kinase) | 2
0.258 | 4.78 | inactive | ATR (ATR checkpoint kinase) | 3

Reformatted: 7 of the entries above.
CPA2 (carboxypeptidase A2) #1
- G2 robust z-score: 0.0541
- G2 cells, % of GMNN control: 3.35
- Outcome: inactive

CPA2 (carboxypeptidase A2) #2
- G2 robust z-score: -0.137
- G2 cells, % of GMNN control: 2
- Outcome: inactive

CPA2 (carboxypeptidase A2) #3
- G2 robust z-score: -0.56
- G2 cells, % of GMNN control: -0.97
- Outcome: inactive

LMX1A (LIM homeobox transcription factor 1 alpha) #1
- G2 robust z-score: 0.759
- G2 cells, % of GMNN control: 8.31
- Outcome: inactive

LMX1A (LIM homeobox transcription factor 1 alpha) #2
- G2 robust z-score: 2.99
- G2 cells, % of GMNN control: 24
- Outcome: inactive

LMX1A (LIM homeobox transcription factor 1 alpha) #3
- G2 robust z-score: -1
- G2 cells, % of GMNN control: -4.08
- Outcome: inactive

PBX2 (PBX homeobox 2) #1
- G2 robust z-score: 2.12
- G2 cells, % of GMNN control: 17.9
- Outcome: inactive
